# According to the supplement of paper PMC6414424:
# ± gives the standard deviation of the averaged measurements. The list shows a part of the results.
# Tested on: APPdp1-6 iPSC-derived neurons
# Experiment: pThr231Tau/total Tau ratio Z-score vs DMSO vehicle wells; higher = more pThr231Tau relative to total Tau
# Settings: 5 µM; treatment time 5 days
row,Structure (SMILES),pThr231Tau/total Tau ratio Z-score
1,CC(=O)[C@H]1CC[C@H]2[C@@H]3CCC4=CC(=O)CC[C@]4(C)[C@H]3CC[C@]12C [Prestw-477],-0.309 ± 0.45
2,CN(C)CC/C=C1/c2ccccc2Sc2ccc(Cl)cc21 [Prestw-348],-0.708 ± 0.6
3,CC(C)NC[C@@H](O)c1ccc(O)c(O)c1 [Prestw-911],0.947 ± 0.28
4,CN(C)CCOC(c1ccccc1)c1ccccc1 [Prestw-65],0.905 ± 0.2
5,COc1ccc2[nH]c([S+]([O-])Cc3ncc(C)c(OC)c3C)nc2n1 (stereo unspecified) [Prestw-1351],-1.68 ± 0.72
6,CC(=O)Oc1c(C)c(C)c2c(c1C)CC[C@@](C)(CCC[C@H](C)CCC[C@H](C)CCCC(C)C)O2,-0.276 ± 0.5
7,C[C@]12CC[C@@H]3c4ccc(O)cc4CC[C@H]3[C@@H]1CC[C@@H]2O [Prestw-441],0.607 ± 0.17
8,CCN(CC)C(=O)c1cccc(C)c1,-1.06 ± 0.74
9,CCCN(CCC)S(=O)(=O)c1ccc(C(=O)O)cc1 [Prestw-542],0.307 ± 0.75
10,Clc1ccc(CSC(Cn2ccnc2)c2ccc(Cl)cc2Cl)cc1 (stereo unspecified) [Prestw-810],-1.44 ± 2
11,C[n+]1cc2c3c(ccc2c2ccc4cc5c(cc4c21)OCO5)OCO3,-1.65 ± 0.28
12,CN(C)CCN(Cc1ccccc1)c1ccccn1 [Prestw-1199],-0.0854 ± 1.1
13,Nc1ccn([C@@H]2O[C@H](CO)[C@@H](O)C2(F)F)c(=O)n1 [Prestw-1266],0.609 ± 0.095
14,CN1C(=O)CC(c2ccccc2)C1=O (stereo unspecified) [Prestw-1061],6.19 ± 9.2
15,CC(=O)O[C@@]12CO[C@@H]1C[C@H](O)[C@@]1(C)C(=O)[C@H](O)C3=C(C)[C@@H](OC(=O)[C@H](O)[C@@H](NC(=O)OC(C)(C)C)c4ccccc4)C[C@@](O)([C@@H](OC(=O)c4ccccc4)[C@H]21)C3(C)C [Prestw-1180],-3.43 ± 0.45
16,N[C@@H](Cc1cc(I)c(Oc2cc(I)c(O)c(I)c2)c(I)c1)C(=O)O [Prestw-403],-0.421 ± 0.8
17,N=C(N)NC(=O)Cc1c(Cl)cccc1Cl [Prestw-339],0.0308 ± 1.4
18,Clc1ccc(Cn2c(CN3CCCC3)nc3ccccc32)cc1 [Prestw-227],-1.1 ± 1.3
19,COc1cc2nc(N(C)CCCNC(=O)C3CCCO3)nc(N)c2cc1OC (stereo unspecified) [Prestw-322],-0.554 ± 0.15
20,"CCCCCCCCCCCCCCCC(=O)OC[C@@H](NC(=O)C(Cl)Cl)[C@H](O)c1ccc([N+](=O)[O-])cc1 [CHLORAMPHENICOL PALMITATE, antibacterial, antirickettsial]",2.21 ± 1.7
21,CC(C)N=c1cc2n(-c3ccc(Cl)cc3)c3ccccc3nc-2cc1Nc1ccc(Cl)cc1 [Prestw-376],-3.16 ± 1.1
22,O=C(O)COCCN1CCN(C(c2ccccc2)c2ccc(Cl)cc2)CC1 (stereo unspecified) [Prestw-503],-0.79 ± 2.1
23,CCCCC(CC)CCC(CC(C)C)OS(=O)(=O)O (stereo unspecified),-0.263 ± 0.45
24,COc1ccc2cc([C@H](C)CO)ccc2c1,0.0099 ± 0.15
25,Clc1ccc(CO/N=C(\Cn2ccnc2)c2ccc(Cl)cc2Cl)c(Cl)c1 [Prestw-1125],-0.0338 ± 0.65
26,CC(=O)O[C@]1(C(C)=O)CC[C@H]2[C@@H]3C=C(Cl)C4=CC(=O)[C@@H]5C[C@@H]5[C@]4(C)[C@H]3CC[C@@]21C [Prestw-1074],-0.733 ± 0.23

# Three entries out of the list, ordered by count of non-hydrogen atoms, rising.
row,Structure (SMILES),pThr231Tau/total Tau ratio Z-score
17,N=C(N)NC(=O)Cc1c(Cl)cccc1Cl [Prestw-339],0.0308 ± 1.4
7,C[C@]12CC[C@@H]3c4ccc(O)cc4CC[C@H]3[C@@H]1CC[C@@H]2O [Prestw-441],0.607 ± 0.17
15,CC(=O)O[C@@]12CO[C@@H]1C[C@H](O)[C@@]1(C)C(=O)[C@H](O)C3=C(C)[C@@H](OC(=O)[C@H](O)[C@@H](NC(=O)OC(C)(C)C)c4ccccc4)C[C@@](O)([C@@H](OC(=O)c4ccccc4)[C@H]21)C3(C)C [Prestw-1180],-3.43 ± 0.45

# The listing continues.

row,Structure (SMILES),pThr231Tau/total Tau ratio Z-score
1,COc1cc2c3cc1Oc1cc(ccc1O)C[C@@H]1c4c(cc(OC)c(O)c4Oc4ccc(cc4)C[C@@H]3N(C)CC2)CC[N+]1(C)C,1.48 ± 2.3
2,CC1(C)[C@H](C(=O)O)N2C(=O)C[C@H]2S1(=O)=O [Prestw-1345],-0.992 ± 0.66
3,Cc1ncc(CO)c(CO)c1O [Prestw-623],1.16 ± 0.28
4,CCc1c(C)[nH]c2c1C(=O)C(CN1CCOCC1)CC2 (stereo unspecified) [Prestw-1035],1.46 ± 0.05
5,CCO/C([O-])=N/c1c[n+](N2CCOCC2)no1,0.339 ± 0.33
6,CCC1(c2ccccc2)NC(=O)N(C)C1=O (stereo unspecified) [Prestw-1108],-0.218 ± 0.67
7,"CC1=C(C(=O)O)N2C(=O)[C@@H](NC(=O)[C@H](N)C3=CCC=CC3)[C@H]2SC1 [CEPHRADINE, antibacterial]",1.02 ± 0.4
8,N[C@@H](CCC(=O)N[C@@H](CS)C(=O)NCC(=O)O)C(=O)O [Glutathione],0.775 ± 0.56
9,"COc1cc(C(=O)NCCCCCC(=O)O)cc(OC)c1OC [CAPOBENIC ACID, antiarrhythmic]",1.86 ± 2.9
10,CC1=C(/C=C/C(C)=C/C=C/C(C)=C/C(=O)O)C(C)(C)CCC1 [Prestw-257],-0.137 ± 1.3
11,CC(=O)Oc1ccccc1C(=O)O [Prestw-1207],0.0259 ± 0.16
12,O=c1cc(-c2ccccc2)oc2cc(O)ccc12,1.08 ± 0.3
13,"CC(=O)Nc1ccccc1 [ACETANILIDE    Therap cat: analgesic, antipyretic]",-0.108 ± 0.47
14,"O=C1OC2(c3ccccc31)c1cc(I)c(O)c(I)c1Oc1c2cc(I)c(O)c1I [ERYTHROSINE SODIUM, color additive]",0.903 ± 0.6
15,CC(C(=O)O)c1ccc2c(c1)Cc1cccnc1O2 (stereo unspecified) [Prestw-1318],-0.664 ± 0.32
16,CSc1ccc2c(c1)C(N1CCN(C)CC1)Cc1ccccc1S2 (stereo unspecified) [Prestw-375],-1.52 ± 1.6
17,Cc1c(C)c2c(c(C)c1O)CCC(C)(COc1ccc(CC3SC(=O)NC3=O)cc1)O2 (stereo unspecified) [Prestw-1467],0.642 ± 0.53
18,C=Cc1c(C)c2cc3[nH]c(cc4nc(cc5nc(cc1[nH]2)C(C)=C5CCC(=O)O)C(CCC(=O)O)=C4C)c(C)c3C=C [Protoporphyrin IX],-0.0835 ± 0.19
19,"CC1(C)[C@@H]2CC[C@@]1(C)C(=O)C2 [CAMPHOR (1R), analgesic, antiinfective, antipruritic]",-0.915 ± 1.1
20,COC(c1ccccc1)(c1ccccc1)[C@H](Oc1nc(C)cc(C)n1)C(=O)O [Prestw-1497],-0.221 ± 0.053
21,COc1ccc([C@@H]2CC(=O)c3c(O)cc(O[C@@H]4O[C@H](CO[C@@H]5O[C@@H](C)[C@H](O)[C@@H](O)[C@H]5O)[C@@H](O)[C@H](O)[C@H]4O)cc3O2)cc1O [Prestw-400],0.7 ± 1.3
22,CC(C)(C(=O)O)c1ccc(C(O)CCCN2CCC(C(O)(c3ccccc3)c3ccccc3)CC2)cc1 (stereo unspecified) [Prestw-1102],0.0801 ± 1.5
23,NS(=O)(=O)c1cc(C(=O)O)cc(N2CCCC2)c1Oc1ccccc1 [Prestw-1047],0.882 ± 0.74
24,CN(C)CCCN1c2ccccc2Sc2ccccc21 [Prestw-693],-0.528 ± 0.12
25,O=C(O)c1cccnc1Nc1cccc(C(F)(F)F)c1 [Prestw-255],-0.133 ± 0.8
